From patent publication US20140308201A1 come the findings set out here.

Positions count from the first letter of the chain named. Results are given in words; binding and its absence hold for the method and conditions named. For part of these data: Binding calls can cover weak binding; strength is not graded here.

B1: mAb12433 (antibody, human IgG1, kappa, V domains shown)
VH: QVQLVQSGAEVKKPGESLKISCKGSGYSFTNYYIHWVRQMPGKGLEWMGAIYPDNSDTTYSPSFQGQVTISADKSISTAYLQWSSLKASDTAMYYCARGADIWGQGTLVTVSS
VL: DIQMTQSPSSLSASVGDRVTITCRASQDIDPYLSNWYQQKPGKAPKLLIYDASNLQSGVPSRFSGSGSGTDFTLTISSLQPEDFATYYCQQTTSHPYTFGQGTKVEIKR
B2: mAb12422 (antibody, human IgG1, kappa, V domains shown)
VH: QVQLVQSGAEVKKPGSSVKVSCKASGGTFSSYAISWVRQAPGQGLEWMGYISPYMGETHYAQKFQGRVTITADESTSTAYMELSSLRSEDTAVYYCARESYEYFDIWGQGTLVTVSS
VL: DIQMTQSPSSLSASVGDRVTITCRASQSISNDLAWYQQKPGKAPKLLIYATSILQSGVPSRFSGSGSGTDFTLTISSLQPEDFATYYCLQYYDYSYTFGQGTKVEIKR
B3: mAb12439 (antibody, human IgG1, kappa, V domains shown)
VH: QVQLVQSGAEVKKPGASVKVSCKASGYTFTSYDISWVRQAPGQGLEWMGWINPYNGGTNYAQKFQGRVTMTRDTSISTAYMELSRLRSEDTAVYYCAREGSGMIVYPGWSYAFDYWGQGTLVTVSS
VL: B2 VL with S28D, A34G, T51A, I53S, L89Q, Y91H, D93H, Y94T, S95P, Y96N
B4: mAb11725 (antibody, human IgG1, lambda, V domains shown)
VH: QVQLLESGGGLVQPGGSLRLSCAASGFTFNTYWLHWVRQAPGKGLEWVSVISSDSSSTYYADSVKGRFTISRDNSKNTLYLQMNSLRAEDTAVYYCARDSRLDYWGQGTLVTVSS
VL: DIELTQPPSVSVSPGQTASITCSGDSIGDTYVDWYQQKPGQAPVLVIYDDIDRPSGIPERFSGSNSGNTATLTISGTQAEDEADYYCYVYAWTGTSNVFGGGTKLTVLG

For one assay, the target named is Human FGFR2 IIIb D1-3 (human). The assay can be described thus: SPR Biacore. (SPR reads the build-up and loss of mass on a sensor chip optically.)
As for B1, the binding entry is reported as “binds”.
Regarding B2, the binding result is given as “binds”.
For the molecule B3, the binding result was “binds”.
For the molecule B4, the binding entry is “binds”.

In another assay the target is Rat FGFR2 IIIb D1-3 (rat). The assay can be described thus: SPR Biacore.
For B1, the binding result is on record as “binds”.
For the molecule B2, the binding result is “binds”.
On to B3, for which the binding entry is given as “binds”.
Take B4: the binding entry was “binds”.

For a further assay, the target named is Mouse FGFR2 IIIb D1-3 (mouse). As to the kind of experiment: SPR Biacore.
Regarding B1, the binding result was “binds”.
As for B2, the binding entry is recorded as “binds”.
B3: the binding result is on record as “binds”.
In the case of B4, the binding entry is “binds”.

The target in the next assay is Human FGFR1 IIIb D1-3 (human). As to the kind of experiment: SPR Biacore, IgG captured via anti-human Fc.
Turning to B1, the binding result was “no binding (tested: 0.078-100 nM FGFR injected)”.
Turning to B2, the binding result is “no binding (tested: 0.078-100 nM FGFR injected)”.
B3: the binding entry is given as “no binding (tested: 0.078-100 nM FGFR injected)”.
In the case of B4, the binding entry is “no binding (tested: 0.078-100 nM FGFR injected)”.

Another assay deals with Human FGFR3 IIIb D1-3 (human). As to the kind of experiment: SPR Biacore, IgG captured via anti-human Fc.
With B1, the binding entry was “no binding (tested: 0.078-100 nM FGFR injected)”.
As for B2, the binding result is reported as “no binding (tested: 0.078-100 nM FGFR injected)”.
Still for that read-out and setting: with B3 the entry was “no binding (tested: 0.078-100 nM FGFR injected)”.
As to B4, the binding result is “no binding (tested: 0.078-100 nM FGFR injected)”.

The next assay deals with Human FGFR2 IIIb D1-3 (human). The assay can be described thus: screening of panning outputs for specificity and cross-reactivity (assays of Example 1).
With B1, the binding result is given as “binds”.
For B2, the binding result is “binds”.
On to B3, for which the binding entry is “binds”.
As to B4, the binding result was “binds”.

A further assay concerns the target Human FGFR2 IIIc D1-3 (human). Described as above.
In the case of B2, the binding result is listed as “binds”.
On to B3, for which the binding result was “binds”.
Turning to B4, the binding result was “binds”.
